# Assay results as given in patent US20150037339A1.
# Amino acid sequences for entries named in this document (tags omitted). A change or cut given only in a name is not applied to a line headed by its entry.
# UniProt P08476: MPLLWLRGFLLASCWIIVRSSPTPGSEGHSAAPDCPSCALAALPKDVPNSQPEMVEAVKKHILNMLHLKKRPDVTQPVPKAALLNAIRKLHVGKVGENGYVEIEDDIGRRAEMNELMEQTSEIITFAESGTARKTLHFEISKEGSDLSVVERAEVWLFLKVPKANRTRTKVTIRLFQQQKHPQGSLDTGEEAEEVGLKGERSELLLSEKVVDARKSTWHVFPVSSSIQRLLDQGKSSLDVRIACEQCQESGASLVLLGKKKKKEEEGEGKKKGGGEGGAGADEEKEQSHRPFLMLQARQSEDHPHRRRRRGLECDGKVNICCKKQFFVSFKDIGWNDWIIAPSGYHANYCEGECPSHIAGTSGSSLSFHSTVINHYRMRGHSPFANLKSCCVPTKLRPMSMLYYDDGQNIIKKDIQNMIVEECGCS
# UniProt P09529: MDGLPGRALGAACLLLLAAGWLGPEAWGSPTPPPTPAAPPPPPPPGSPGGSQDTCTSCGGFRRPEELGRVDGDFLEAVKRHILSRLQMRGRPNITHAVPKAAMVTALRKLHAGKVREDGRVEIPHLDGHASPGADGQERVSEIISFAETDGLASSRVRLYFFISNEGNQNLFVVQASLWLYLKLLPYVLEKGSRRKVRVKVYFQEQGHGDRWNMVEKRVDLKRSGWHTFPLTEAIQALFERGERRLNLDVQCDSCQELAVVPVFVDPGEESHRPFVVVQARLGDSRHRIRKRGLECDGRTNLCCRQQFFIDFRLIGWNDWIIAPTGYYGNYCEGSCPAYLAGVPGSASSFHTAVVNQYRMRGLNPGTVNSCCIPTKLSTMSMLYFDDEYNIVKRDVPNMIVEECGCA
# Results are given in words; binding and its absence hold for the method and conditions named. Some results given as binding are weak or reduced against the parent protein; the word gives no strength.
# Tests used:
# Activin AB (human) = Activin AB (human) (UniProt P08476); assay: SPR Biacore 4000, captured mAb, 200 nM ligand, 37C
# Activin B (human) = Activin B (human) (UniProt P09529); assay: SPR Biacore 4000, captured mAb, 200 nM ligand, 37C
binding (Activin AB (human)),binding (Activin B (human)),Binder
binds,binds,"H4H10429P (antibody, human IgG4, V domains shown) VH: QVQLVESGGGVVQPGRSLRLSCVASGFTVSSYGIHWVRQAPGKGLEWVSVIWYDGRNKDYADSVKGRFTISRDNSKNTVYLEMKGLRAEDTALYYCARDKTGDFDSWGQGTLVTVSS VL: DIQMTQSPSSLSASVGDRVTITCRASQNINSFLSWYQQKPGKAPKFLIYDASSIQSGAPSRFSGSGSGTDFTLTISSLQPEDFATYYCQQSYSSPFTFGQGTKLEIK"
binds,–,"H4H10430P (antibody, human IgG4, V domains shown) VH: EVQLVESGGGLVQPGRSLRLSCKASGFAFDDFAMHWVRQAPGKGLEWVSGIVWNSGDIGYADSVKGRFTISRDNAKNSLYLQLNSLRTEDTALYFCVKDMVRGLMGFNYYGMDVWGQGTTVTVSS VL: EIVLTQSPATLSLSPGERATLSCRASQTISTYLVWYRQRPGQAPSLLIYDASNRATDIPARFSGSGSGTDFTLTISSLEPEDFAVYYCQQRSNWPITFGQGTRLEIK"
